Hit rate of the full screen: of about 59,000 compounds, about 6,500 (11%) were called active. Inconclusive results, whose numbers are uncertain, are shown with a selection of clear calls. No stated cut-off is given here; in the data, active means max dye-equivalent concentration above about 10 nM; inconclusive means mostly about 1.1 nM to 9.6 nM; inactive means weaker than that.
Test: qHTS Assay for Spectroscopic Profiling in A350 Spectral Region
Details: Compound autofluorescence, 340/450 nm, Alexa 350 dye-equivalents; hits give high values

Structure (SMILES) | max dye-equivalent concentration
CC(=NC1CCCCC1)c1ccccc1O | inactive
N=C(N)SCCc1cnc[nH]1 | inconclusive: 7.2 nM
O=C(CCCOc1ccc(Cl)cc1Cl)N1CCN(c2ccccn2)CC1 | inconclusive: 1.1 nM
COc1ccc(OCCOC(=O)c2cccs2)cc1 | inconclusive: 2.7 nM
Clc1ccc(Cn2cc(/C=N/n3cnnc3)c3ccccc32)cc1 | active: 13 nM
CCCCOc1ccc(C(=O)NCc2ccccn2)cc1 | inactive
O=c1c(CCc2ccccc2)nc2cnc(N3CCOCC3)nc2n1C1CC1 | inconclusive: 4.8 nM
CCOC(=O)c1sc(C)c2c1NC(C)(c1cccs1)NC2=O (stereo not given) | active: 53 nM
CC(C)CNC(=O)c1ccccc1NC(=O)c1ccc(CN2CCOCC2)cc1 | inactive
CCn1c(SCC(=O)Nc2c(C)n(C)n(-c3ccccc3)c2=O)nnc1-c1cccc(C)c1 | inconclusive: 1.3 nM
CCOC(=O)N1CCN(C(=O)CSCC(=O)Nc2nc(-c3cccs3)cs2)CC1 | active: 71 nM
Cn1c(-c2ccc(C(=O)c3ccccc3)s2)nc2ccccc21 | inconclusive: 7.3 nM
CN(C)c1ncc2nc(-c3cc(F)cc(F)c3)c(=O)n(CCc3ccccc3)c2n1 | inconclusive: 2.8 nM
N=c1sc2ccccc2n1-c1ccccc1 | inconclusive: 2.3 nM
CCCC1CC(c2csc(N)n2)CCO1 (stereo not given) | inconclusive: 3.4 nM
Cc1nc(SCC(=O)Nc2ccccc2C(F)(F)F)c2c(=O)n(C)c(=O)n(C)c2n1 | inactive
CCOc1ccccc1NC(=O)c1cc(CC(C)C)oc1C | inactive
CCOC(=O)c1sc2nc(CSCC(=O)OCc3ccc(C(=O)OC)o3)[nH]c(=O)c2c1C | inconclusive: 3.2 nM
CCc1c(O)nc(SCC(=O)Nc2ccc(OC)cc2)n(C2CCCCC2)c1=O | inconclusive: 10 nM
CCOC(=O)c1cc2sccc2n1CCCN1C(=O)c2ccccc2C1=O | inactive
O=C(NCc1ccc2c(c1)OCO2)c1cc2ncc(Br)cn2n1 | inconclusive: 1.7 nM
CC1=C(C(=O)Nc2ccc(C)cc2)C(c2ccc(C)o2)C2=C(CC(C)(C)CC2=O)N1 (stereo not given) | active: 33 nM
Cn1cnc2c1c(=O)n(Cc1cccc(Br)c1)c(=O)n2C | inconclusive: 2.2 nM

Structure (SMILES) | max dye-equivalent concentration
Cc1cc(C)n(CCO)c(=O)n1 | active: 180 nM
CC(=O)c1c(C)c2c(n1CCN(C)C)CCCC2 | active: 160 nM
CCOC(=O)C1CCN(S(=O)(=O)c2c(C)n[nH]c2C)CC1 | inconclusive: 2.2 nM
CCCCN(C)C(=O)c1sc2ncn(CC)c(=O)c2c1C | inconclusive: 4.7 nM
CCSc1nc2n(n1)C(c1cccc(F)c1)C1=C(CCCC1=O)N2 (stereo not given) | active: 77 nM
CCOc1ccc(OCc2ccc(C(=O)Nc3cccc(C)n3)o2)cc1 | inconclusive: 4.2 nM
Cc1cc(=O)[nH]c(SCCOc2cccc(C(F)(F)F)c2)n1 | inconclusive: 2.4 nM
O=C(NCc1ccco1)c1ccc2c(=O)n(Cc3ccco3)c(SCC(=O)N3CCCC3)nc2c1 | inactive
O=C(c1csnn1)N1CCC[C@@]2(CCN(c3ccccn3)C2)C1 | inactive
CCC(C)OC(=O)C1=C(C)NC2=C(C(=O)C(C(=O)OC)C(C)C2)C1c1ccc(N(C)C)cc1 (stereo not given) | inconclusive: 6.7 nM
CN(C)c1ccc(-c2nc3ccccc3n2C)cc1 | active: 180 nM
Cc1occc1-c1nnc(SCC(=O)N2CCOCC2)o1 | inconclusive: 1.8 nM
CC(=O)OCC(=O)[C@@]1(OC(C)=O)[C@H](C)C[C@H]2[C@@H]3C[C@H](F)C4=CC(=O)C=C[C@@]4(C)[C@]3(F)[C@H](O)C[C@@]21C | inactive
CCOc1ccc(OCC)c(NC(=O)CSc2nc3ccccc3c(=O)n2C)c1 | inactive
COc1cc(-c2[o+]c3cc(O)cc(O)c3cc2O)cc(O)c1O | inactive
CCN1C(=O)/C(=C/N2CCc3ccccc32)SC1=S | inconclusive: 2.6 nM
CC(C)(C)c1cnnn1-c1ccc(-c2csc(N)n2)cc1 | inconclusive: 1.1 nM
O=C(Cc1cccs1)Nc1nnc(CCc2ccccc2)s1 | inconclusive: 1.9 nM
CCCCCCC(=O)N(O)C1CC(=O)N(Cc2ccccc2)C1=O (stereo not given) | inconclusive: 2.3 nM
Cc1cccn2c(=O)c3cc(C#N)c(=NC(=O)c4ccc5c(c4)OCO5)n(CC(C)C)c3nc12 | inconclusive: 3.4 nM
CCC(C)(C)NC(=O)CN(CC1CCCO1)C(=O)CCC(=O)Nc1nccs1 (stereo not given) | inactive
COc1ccc(S(=O)(=O)N(C)CC(=O)N2CCCCCC2)cc1OC | inconclusive: 1.5 nM
Nc1c(S(=O)(=O)O)cc(Nc2ccc(Nc3nc(Cl)nc(Nc4ccc(S(=O)(=O)O)cc4)n3)c(S(=O)(=O)O)c2)c2c1C(=O)c1ccccc1C2=O | inconclusive: 6.6 nM

Structure (SMILES) | max dye-equivalent concentration
CCCCOc1ccc(-c2nnc(-c3ccncc3)o2)cc1 | inconclusive: 2.6 nM
COc1cc2c(=O)n(Cc3ccco3)c(=O)n(CC(=O)c3cccc(Br)c3)c2cc1OC | inactive
O=C1CCC(C(=O)Nc2ccc(OC(F)F)cc2)N1 (stereo not given) | active: 22 nM
COc1ccccc1-c1nc2s/c(=C\c3cccs3)c(=O)n2n1 | active: 12 nM
CCCC1Cc2c(sc3ncnc(N)c23)CO1 (stereo not given) | inconclusive: 5.5 nM
O=C(COC(=O)c1ccco1)Nc1ccc2c(c1)OCCO2 | inactive
CN1C(=O)N(C)C2C1N(CN1CCCCC1)C(=O)N2CN1CCCCC1 (stereo not given) | inconclusive: 2.6 nM
CCOc1ccccc1CNc1ccc(N2CCOCC2)c(C(=O)O)c1 | inactive
CCC(CC)C(=O)Nc1cc(NC(=O)C(CC)CC)cc(C(=O)O)c1 | inactive
CC1(C)Cc2c(C#N)c(OCC(=O)c3ccc(Cl)cc3)nc(-c3ccoc3)c2CO1 | inconclusive: 5.5 nM
COc1ccc(Oc2ncc3nc(-c4ccc(OC)cc4)c(=O)n(Cc4cccs4)c3n2)cc1 | inconclusive: 1.2 nM
Cc1cccc(NC(=O)C2CCN(S(=O)(=O)c3cccc4nsnc34)CC2)n1 | active: 31 nM
COc1ccccc1NS(=O)(=O)c1cc(C(=O)NCCN2CCOCC2)ccc1Cl | inactive
COc1ccc(-c2nc3cnc(OC)nc3n(CCC#N)c2=O)cc1 | active: 20 nM
FC(F)(F)c1ccccc1-c1cc(N2CCNCC2)ncn1 | inactive
CCCCCC(=O)Nc1ccc2oc(-c3ccncc3)nc2c1 | active: 29 nM
CCCCn1c(NCCC)nc2c1c(=O)[nH]c(=O)n2C | inactive
COC(=O)c1ccccc1NC1OC(=O)c2ccccc21 (stereo not given) | active: 60 nM
Fc1ccc(Nc2ccnc(-c3ccccc3C(F)(F)F)n2)cc1 | inactive
CCN(CC(=O)NCc1cccs1)S(=O)(=O)c1cccc(C(C)=O)c1 | inconclusive: 3.3 nM
Cc1coc(C)c1C(=O)CC1(O)C(=O)Nc2cc(Cl)cc(Cl)c21 (stereo not given) | active: 170 nM
CCOC(=O)C(C)Sc1ccc2nnc(-c3ccc(F)cc3)n2n1 (stereo not given) | active: 11 nM
O=C(O)c1cccc(COc2ccccc2Cl)c1 | inactive

Structure (SMILES) | max dye-equivalent concentration
Cc1nc2ccccc2n1-c1nc(-c2ccco2)cc(C(F)(F)F)n1 | inconclusive: 2.7 nM
CC1(N2CCCCC2)CC2(O)C(=[N+]1[O-])CCC/C2=N\O (stereo not given) | inconclusive: 3.2 nM
CC1Cc2ccccc2N1C(=O)COC(=O)Cn1cnc2ccccc2c1=O (stereo not given) | inconclusive: 3.1 nM
Cc1ccc(-c2noc(CCCC(=O)N3CCOCC3)n2)cc1 | inconclusive: 2.3 nM
CN(C)Cc1cc(C(C)(C)c2cc(CN(C)C)c(O)c(CN(C)C)c2)cc(CN(C)C)c1O | inconclusive: 2.8 nM
Cc1cc(NS(=O)(=O)c2ccc(NC(=O)CCc3ccccc3)cc2)no1 | inconclusive: 1.4 nM
CCn1c(SCC(=O)Nc2cc(OC)c(OC)c(OC)c2)nnc1-c1cccs1 | inconclusive: 1.6 nM
COC(=O)c1ccccc1COn1c(=O)c[n+]([O-])c2ccccc21 | active: 36 nM
COc1ccc(OC)c2[nH]c(=O)c(CCNC(=O)c3ccc(Br)o3)cc12 | inconclusive: 3.3 nM
COC(=O)c1[nH]c2ccc(C)cc2c1NC(=O)CN1CCCc2ccccc21 | inconclusive: 2.8 nM
COc1ccccc1CCn1c(=O)c(-c2ccc(F)c(F)c2)nc2cncnc21 | inconclusive: 1.2 nM
Cc1c(C(=O)O)oc2ccc(S(=O)(=O)NCc3ccc4c(c3)OCO4)cc12 | inconclusive: 4.5 nM
c1ccc2c(c1)CCCN2Cc1nnnn1C1CCCC1 | inconclusive: 7.2 nM
Cn1c(N)c(C(=O)COC(=O)c2ccco2)c(=O)n(C)c1=O | inconclusive: 1.4 nM
COc1cc(C(=O)N(Cc2cc3ccccc3[nH]c2=O)CC2CCCO2)cc(OC)c1OC (stereo not given) | inactive
COc1cc(C(=O)Nc2nc(-c3cccs3)cs2)cc(OC)c1OC | inconclusive: 3.4 nM
Cc1nn(C)c(C)c1CN(C)C(=O)c1cnn2c1NC(c1ccccc1)CC2C(F)(F)F (stereo not given) | inactive
CCOC(=O)CSC1=C(C#N)C(c2ccc3c(c2)OCO3)CC(=O)N1 (stereo not given) | inactive
Cc1cccc(CNc2nc(-c3ccccc3CN(C)C)nc3ccccc23)c1 | inactive
COCCNC(=O)C(c1cccs1)N(C(=O)Cn1nnc2ccccc21)c1cccc(C)c1 (stereo not given) | inconclusive: 1.5 nM
COc1ccc(OCCOCC(O)CN2CCOCC2)cc1 (stereo not given) | active: 15 nM

In the list so far, 4 have bromine:
Structure (SMILES) | max dye-equivalent concentration
O=C(NCc1ccc2c(c1)OCO2)c1cc2ncc(Br)cn2n1 | inconclusive: 1.7 nM
Cn1cnc2c1c(=O)n(Cc1cccc(Br)c1)c(=O)n2C | inconclusive: 2.2 nM
COc1cc2c(=O)n(Cc3ccco3)c(=O)n(CC(=O)c3cccc(Br)c3)c2cc1OC | inactive
COc1ccc(OC)c2[nH]c(=O)c(CCNC(=O)c3ccc(Br)o3)cc12 | inconclusive: 3.3 nM
